The whole screen tested about 340,000 compounds, of which about 6,200 (1.8%) were called active. Inconclusive means that the source gave no clear call. Such entries were picked first, then a sample of the others. Calls come from the whole dose curve; as a rule, active = well fitted activation curve with a large enough effect; inconclusive = small, poorly fitted or top-dose-only effect; inactive = no such curve, though single readings can be large or run the other way. Potencies beside an inconclusive call are fits to weak or partial responses and may not hold up. Where a structure was tested more than once in an assay, its records may differ in their call.
Experiment: A quantitative high throughput screen for small molecules that induce DNA re-replication in SW480 colon adenocarcinoma cells. For re-replication activation: % of control where 0% means no effect. Note: nearly all actives have a fitted effect of over 55% in size.
Conditions: Hoechst DNA content imaging, 48 h; re-replication activation: at 46.1 µM (top of the series) unless noted
Outline: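 Compounds, transferred as 23 nL by pin tool, were incubated with cells for 48 hr; DNA content per nucleus was then quantified by Hoechst staining and fluorescence plate imaging.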
Potency is the fitted concentration of half-maximal effect.

SMILES	Potency	re-replication activation
COC(C[C@H]1O[C@H]1C(=O)COCc1ccccc1)OC	inconclusive: 0.0517 µM [activator, full curve, poor fit]	–
COc1ccccc1-c1cn[nH]c1-c1ccc(OCc2ccccc2F)cc1O	inconclusive: 29.1 µM [activator, partial curve, poor fit]	–
O=C(Nc1ccccc1Cc1ccccc1)c1ccncc1	inactive	–
O=C(C1CCN(S(=O)(=O)c2ccccc2)CC1)N1CCc2ccccc21	inconclusive: 32.6 µM [activator, partial curve, poor fit]	–
CC(=O)NCCNC(=O)c1ccc(-n2c(C)ccc2C)cc1	inconclusive: 29.1 µM [activator, single point]	–
CC(C)N=c1scc(-c2cccs2)n1/N=C/c1ccc(O)c(O)c1O	inconclusive: 20.6 µM [activator, partial curve, poor fit]	–
COc1ccc(/C=N/NC(=O)c2csc(-n3nc(C)cc3C(F)(F)F)n2)cc1	inconclusive: 29.1 µM [activator, single point]	–
CCc1cccc2c1Sc1ccccc1CC2N1CCNCC1 (stereo not given)	inactive	–
O=C(COC(=O)COc1cccc(F)c1)NCC1CCCCC1	inconclusive: 9.2 µM [activator, partial curve, poor fit]	–
CC(C)C(=O)NCCc1nc2ccccc2n1CCc1ccccc1	inactive	–
COc1ccc(C2c3c(ncn(Cc4ccco4)c3=N)Oc3ccc4ccccc4c32)cc1 (stereo not given)	inconclusive: 18.4 µM [activator, partial curve, poor fit]	–
O=C(NCc1ccccc1)NC(=O)c1ccccc1F	inconclusive: 29.1 µM [activator, single point]	–
O=[N+]([O-])c1ccc(/C=C/c2ccc3cccc(O)c3n2)cc1	inconclusive: 18.4 µM [activator, single point]	–
CC(Sc1nc2cc(Cl)ccc2s1)C(=O)Nc1cccc(S(=O)(=O)N2CCOCC2)c1 (stereo not given)	inactive	–
CCOc1ccc2[nH]c(=O)c(CN(Cc3ccccc3OC)C(=O)c3ccccc3)cc2c1	inconclusive: 23.1 µM [activator, single point]	–
COc1nnc(-c2ccc(C)c(S(=O)(=O)N(C)C)c2)c2ccccc12	–	inconclusive: 83.7% [activator]
COc1cccc(CN2C(=O)c3cccc(N)c3C2=O)c1	inconclusive: 11.2 µM [activator, partial curve, poor fit]	–
CC(C)(C)OC(=O)N1CCC(C(=O)N[C@@H](Cc2ccccc2)C(=O)O)(c2ccccc2)CC1	active: 0.461 µM	–
COc1ccccc1N1CCN(CCCCCCOc2ccc(F)cc2)CC1	inconclusive: 29.1 µM [activator, single point]	–
CN(C)c1ccc(C(O)c2cc3ccccc3s2)cc1 (stereo not given)	inconclusive: 23.1 µM [activator, single point]	–
CC(=O)N1c2ccc(S(=O)(=O)NCCC(=O)Nc3ccc(OC(F)(F)F)cc3)cc2CC1C (stereo not given)	inconclusive: 23.1 µM [activator, single point]	–
Clc1ccc2c(SCC3CO3)c3ccccc3nc2c1 (stereo not given)	inconclusive: 18.4 µM [activator, single point]	–
O=C(O)c1ccc(S(=O)(=O)NCc2ccc3c(c2)OCO3)cc1	inactive	–
Cc1cc(C2=NNC(=Nc3ccc(S(=O)(=O)N4CCOCC4)cc3)SC2)c(C)n1CC1CCCO1 (stereo not given)	active: 3.66 µM	–

As entered above.
For Potency, `O=C(COC(=O)COc1cccc(F)c1)NCC1CCCCC1` has the entry inconclusive: 9.2 µM [activator, partial curve, poor fit]
For Potency, `COC(C[C@H]1O[C@H]1C(=O)COCc1ccccc1)OC` has the entry inconclusive: 0.0517 µM [activator, full curve, poor fit]
For Potency, `CC(C)N=c1scc(-c2cccs2)n1/N=C/c1ccc(O)c(O)c1O` has the entry inconclusive: 20.6 µM [activator, partial curve, poor fit]
For Potency, `CC(=O)NCCNC(=O)c1ccc(-n2c(C)ccc2C)cc1` has the entry inconclusive: 29.1 µM [activator, single point]

Next compounds follow.

SMILES	Potency	re-replication activation
Cc1cnc(C(=O)NCC(=O)Nc2ccccc2Br)cn1	inconclusive: 23.1 µM [activator, single point]	–
Cc1ccc(C(=O)Nc2ncccc2O)cc1S(=O)(=O)N1CCCCC1	inactive	–
CS(=O)(=O)c1ccccc1C(=O)Nc1ccccc1Cc1ccccc1	inconclusive: 7.31 µM [activator, full curve, poor fit]	–
CCc1c(C)sc(NC(=S)Nc2cccnc2)c1C(=O)OC	inactive	–
CC1(C)CC(NC(=O)COc2ccccc2Cl)CC(C)(C)N1	inconclusive: 5.8 µM [activator, partial curve, poor fit]	–
COc1ccc(N(CC(=O)N/N=C/c2ccccc2F)S(=O)(=O)c2ccccc2)cc1	inconclusive: 32.6 µM [activator, partial curve, poor fit]	–
CN(CC(=O)Nc1ccc(F)c(F)c1F)C(=O)C1CCCCC1	inactive	–
Cc1ccc(Sc2ncccc2C(=O)NCc2cc([N+](=O)[O-])ccc2O)c(C)c1	inconclusive: 25.9 µM [activator, single point]	–
O=C(c1ccccc1)c1nn(-c2cccc(Cl)c2)c2nc(-c3ccccc3)cc(=O)n12	inactive	–
C[C@@H]1CN(C2CCN(Cc3nc(C(c4ccccc4)c4ccccc4)no3)CC2)C[C@H](C)O1	inactive	–
O=C(Nc1cccc(-n2cccn2)c1)C1CCCN(Cc2cc3ccccc3[nH]2)C1 (stereo not given)	inconclusive: 29.1 µM [activator, single point]	–
Fc1ccc2nc(C3CCCCN3Cc3nc(CC4CC4)no3)[nH]c2c1 (stereo not given)	inactive	–
Fc1ccccc1OCCSc1nnnn1-c1ccccc1	inactive	–
COc1ccc(-c2cc(C)no2)cc1S(=O)(=O)NCc1cccc(C)c1	inconclusive: 31.6 µM [activator, single point]	–
CC(C)c1ccc(S(=O)(=O)N2CCN(CC(=O)Nc3ccc(Cl)cc3F)CC2)cc1	inconclusive: 0.731 µM [activator, full curve, poor fit]	–
O=c1[nH]cc(S(=O)(=O)N2CCCc3ccccc32)c(=O)[nH]1	inactive	–
O=C1CC(c2ccc(OCCCCCOc3ccc(C4CC(=O)NC4=O)cc3)cc2)C(=O)N1 (stereo not given)	inconclusive: 20.6 µM [activator, single point]	–
COc1ccc2oc(C(=O)OCC(=O)NCc3ccccc3OC)c(C)c2c1	inactive	–
COc1ccc(CCN(C)C(=O)c2cc(S(=O)(=O)NCc3ccccc3)ccc2C)cc1OC	inconclusive: 0.731 µM [activator, full curve, poor fit]	–
CC(C)C(C)(C#N)NC(=O)CSc1nc2scc(-c3ccco3)c2c(=O)n1-c1ccccc1 (stereo not given)	inactive	–
COc1ccccc1C(CNC(=S)NCc1ccccc1)N1CCCC1 (stereo not given)	inconclusive: 31.6 µM [activator, single point]	–
O=C(c1ccco1)N1N=C(c2cccs2)CC1c1ccco1 (stereo not given)	inactive	–
C=C(C)C(=O)NNc1ccccc1	inconclusive: 29.1 µM [activator, single point]	–
COCC1CCCN(Cc2cn(Cc3ccccc3)nc2-c2cc3ccccc3o2)C1 (stereo not given)	inconclusive: 29.1 µM [activator, single point]	–

SMILES	Potency	re-replication activation
Cc1ccc(/C=C/C(=O)c2ccccc2O)cc1	inconclusive: 29.1 µM [activator, single point]	–
Cn1nc(C(F)(F)F)c(/C=N/OC(=O)c2ccccc2Cl)c1SCc1ccccc1Cl	inconclusive: 16.4 µM [activator, single point]	–
COc1cc(C2SCC(=O)N2CCCN(C)C)cc(OC)c1OC (stereo not given)	inactive	–
Cc1cc(C)c(NC(=O)CN(C)C(=O)CNC(=O)c2cccs2)c(C)c1	inactive	–
Cc1[nH]c2ccc(C(=O)NC3CCCC3)cc2c1C	active: 2.59 µM	–
O=C(CS(=O)Cc1ccccc1Cl)Nc1ccccc1Cl (stereo not given)	inactive	–
O=Cc1ccc(Sc2nnc(-c3ccccc3)o2)c([N+](=O)[O-])c1	inconclusive: 4.11 µM [activator, full curve]	–
Cn1c(=O)n(C)c2cc(S(=O)(=O)N3CCOCC3)ccc21	inactive	–
Cc1sc2nc(C3CC3)nc(N3CCN(C(=O)c4ccc(F)cc4)CC3)c2c1C	inconclusive: 14.6 µM [activator, single point]	–
COc1cccc2cc(C(=O)OCC(=O)NC3CCCC(C)C3C)c(=O)oc12 (stereo not given)	inconclusive: 23.1 µM [activator, partial curve, poor fit]	–
COc1ccc(/C=N/Nc2cc(C)nc(N3CCOCC3)n2)cc1OC	inactive	–
COc1ccc(C(=O)N/N=C/c2ccccc2OC(=O)c2ccccc2)cc1	inconclusive: 3.26 µM [activator, full curve, poor fit]	–
COc1cc(NC(=O)CN2C(=O)C(c3ccccc3)=NC23CCCCCC3)cc(OC)c1	inactive	–
COc1ccccc1N1CCN(C(=O)/C=C/c2cccc([N+](=O)[O-])c2)CC1	inactive	–
COCCNC(=O)CCCn1c(=O)c2cc(OC)c(OC)cc2n(CC(=O)NCCC2=CCCCC2)c1=O	inconclusive: 16.4 µM [activator, single point]	–
CCC(Sc1nc2ccccc2c(=O)n1CC1CCCO1)C(=O)NCc1cccnc1 (stereo not given)	inconclusive: 0.092 µM [activator, full curve, poor fit]	–
COc1c(N2CCN(C(=S)Nc3ccc(F)cc3)C(C)C2)c(F)cc2c(=O)c(C(=O)O)cn(C3CC3)c12 (stereo not given)	inactive	–
O=C1COc2ccc(C(=O)CSc3nnc(NCc4ccccc4)s3)cc2N1	inconclusive: 18.4 µM [activator, partial curve, poor fit]	–
O=C(CC(c1ccccc1)c1ccccc1)NCC(O)c1ccc([N+](=O)[O-])cc1 (stereo not given)	inconclusive: 29.1 µM [activator, single point]	–
O=C(CCS(=O)(=O)c1ccc(F)cc1)Nc1nnc(-c2ccco2)o1	active: 18.4 µM	–
O=C(Nc1cccc(NC(=O)c2ccc(-c3cccc(Br)c3)o2)c1)c1ccco1	inconclusive: 16.4 µM [activator, partial curve, poor fit]	–
Cc1ccc(C)c(NC(=O)C[n+]2ccccc2)c1	inconclusive: 0.517 µM [activator, full curve, poor fit]	–

Source: PubChem BioAssay AID624297 (National Center for Advancing Translational Sciences (NCATS), 2012)
